Test: OLED device test with the compound as host material (lifetime, luminous efficiency)
Settings: relative to the value of RefOLED1, Ir(piq)2acac emitter, mass ratio 90:10
Procedure: 3. The effects of each of the nitrogen-containing fused heterocyclic compounds of Examples 1, 2, 3, 4, 6, 8, 11, and CBP as a host material of the organic electroluminescent device (OLED) on the luminous efficiency and lifetime values of the OLEDs were measured. The current-voltage (J-V) characteristics of the OLED devices are characterized by a characterization equipment, while the lifetime values of the OLED devices were recorded, and the lifetime is represented by T90@1000 nits which is relative to the value of RefOLED1. The specific process is as follows:
The preparation steps of the foregoing OLEDs are as follows:
(1) ITO (indium tin oxide) conductive glass substrates were cleaned using a solvent and treated by UV ozone; wherein the solvent is a mixture of chloroform, acetone and isopropanol in a mass ratio of 5:3:2;
With `c1ccc2c(c1)c1ccccc1n2-c1ccc(-c2ccc(-n3c4ccccc4c4ccccc43)cc2)cc1` [CBP, 4,4′-bis(9H-carbazol-9-yl)biphenyl, reference compound] the “Lifetime (T90@1000 nits)” value was 1.
In the case of `c1ccc(-c2nc(-c3cccc4c3-c3ccccc3C43c4ccccc4-c4ccccc43)nc(-n3c4ccccc4c4ccc5c6ccccc6n(-c6ccccc6)c5c43)n2)cc1` [Example 1], the “Lifetime (T90@1000 nits)” value was 11.4.
For `c1ccc(-c2nc(-c3cccc4c3-c3ccccc3C43c4ccccc4-c4ccccc43)nc(-n3c4ccccc4c4cc5c6ccccc6n(-c6ccccc6)c5cc43)n2)cc1` [Example 2], the “Lifetime (T90@1000 nits)” value was 10.2.
With `c1ccc(-c2nc(-c3cccc4c3-c3ccccc3C43c4ccccc4-c4ccccc43)nc(-n3c4ccccc4c4c5c6ccccc6n(-c6ccccc6)c5ccc43)n2)cc1` [Example 3] the “Lifetime (T90@1000 nits)” value was 8.6.
With `c1ccc(-c2cc(-c3ccc4c(c3)-c3ccccc3C43c4ccccc4-c4ccccc43)nc(N3c4ccccc4Oc4ccc5c(c43)c3ccccc3n5-c3ccccc3)n2)cc1` [Example 4] the “Lifetime (T90@1000 nits)” value was 3.2.
With `CC1(C)c2ccccc2N(c2nc(-c3ccccc3)nc(-c3cccc4c3-c3ccccc3C43c4ccccc4-c4ccccc43)n2)c2ccc3c4ccccc4n(-c4ccccc4)c3c21` [Example 6] the “Lifetime (T90@1000 nits)” value was 5.3.
In the case of `CC1(C)c2ccccc2-c2ccc3c4ccccc4n(-c4nc(-c5ccccc5)nc(-c5cccc6c5-c5ccccc5C65c6ccccc6-c6ccccc65)n4)c3c21` [Example 8], the “Lifetime (T90@1000 nits)” value was 6.7.
In the case of `[2H]c1cc2c3ccccc3n(-c3nc(-c4ccccc4)cc(-c4ccc5c(c4)-c4ccccc4C54c5ccccc5-c5ccccc54)n3)c2c2c3ccccc3n(-c3ccccc3)c12` [Example 11], the “Lifetime (T90@1000 nits)” value was 9.8.
